Data on one compound can be found in paper PMC6271703, “Absorbability, Mechanism and Structure-Property Relationship of Three Phenolic Acids from the Flowers of Trollius chinensis” (Molecules, 2014).

This data set can be described thus: Caco-2 cell monolayer transport experiment. Conditions: human, standard markers added to the AP side, model validation, read-out: Papp of reference controls. The data set is classed as in vitro ADME. Here is the method: To facilitate the cells’ differentiation and formation of a confluent monolayer, Caco-2 cells were seeded at a density of 1.0 × 10^5 cells/cm^2 on a 12-well Transwell insert filter. The inserts were fed with culture medium at 2 days intervals in the first week, and then at daily intervals for the AP side and 2 days intervals for the BL side until they were used for the transport experiment 21 days after seeding. The AP and BL sides contained 0.5 mL and 1.5 mL of culture medium, respectively. The integrity and viability of the cell monolayers were evaluated by measuring TEER values in culture medium at 37 °C using Millicell®-ERS system (Millipore Corp., Bedford, MA, USA) and transport experiment using standard compounds, i.e., propranolol and atenolol which were well-known control substances for high and poor transcellular transport markers, respectively. […]
On day 21, transport study was initiated by careful removal of the culture medium from AP and BL sides. […] Upon completion of all permeation experiments, TEER values were measured to ensure that cell monolayer integrity and viability had not been adversely affected by experimental conditions.
The cell survival rate (%) was calculated using the equation survival rate= A/A0 × 100, wherein A was the average absorbance value of treatment group; A0 was the average absorbance value of the blank control group. […]
Background: Caco-2 cells form a polarised layer with tight junctions and transporters.

For `CC(C)NCC(O)COc1ccc(CC(N)=O)cc1` (stereo not shown) [atenolol, reference compound], the Papp at 180 min was found to be 0.692 ×10⁻⁶ cm/s.

Usually Papp stands for a coefficient for how fast a substance crosses the barrier.
